pIC50: −log10 of the molar value. Entries after “also recorded” stand apart in the source; their conditions may differ. Not every detail of the peptide structures is certain; ends, links or a residue may be inferred. Bridge positions count the residues as written; N and C are the ends. Square brackets hold non-standard residues; d marks the D form. Peptide text beside a SMILES is read from it. Phe(4-Cl) = N[C@@H](Cc1ccc(Cl)cc1)C(=O)O; 3Pal = N[C@@H](Cc1cccnc1)C(=O)O
Key:
[1] = test system: U-II Stimulation of Rat Aorta Phasic Contractions; conditions: circular rat thoracic aorta strips; read-out: IC50 against U-II Stimulation of Rat Aorta Phasic Contractions
Source text: Example 2: Use of Rat Aorta Circular Strip for Assay U-II Antagonists
Male Sprague-Dawley rats (250-350 g), which had been quarantined for 5-7 days prior to the experiments, were sacrificed by decapitation (experiments were approved by the Advisory Committee For Animal Resources, Tulane University School of Medicine). The thoracic aorta was dissected, freed from connective tissue, and cut into rings of about 1.5 mm in width. […]
Optimal tension was applied (0.2 g) to the tissues and the bath medium was maintained at 37°C and bubbled with a mixture of 95% O2/5% CO2. […] Changes in arterial smooth muscle tension were recorded isometrically using a force-displacement transducer (Radnoti), and a AcqKnowledge ACK100 Version 3.2 (BIOPAC Systems, Inc., Santa Barbara, CA.)
In siliconized glass tubes, peptides were dissolved in dionized water at a concentration of 1 µg/1µL (stock solution) and then diluted 1:10 with sterile BSA-saline solution (0.1% BSA, fraction V, Sigma, St. Louis in 0.9% NaCl). […] Peptide-induced changes in tension of the aorta rings were recorded by force-displacement transducers and processed by the computer system BIOPAC Inc., as described above. […]

rat aorta contraction = assay: Peptide-induced contraction of rat aorta rings (U-II agonist activity); conditions: compared with the full human and fish U-II sequences
U-II receptors = target: T1, U-II receptors (Rattus norvegicus, UniProt P49684); assay: Binding to U-II receptors (rat aorta tissue); conditions: compared with the full human and fish U-II sequences
T1 construct: from tissue; host or cells: rat thoracic aorta (circular strips / rings)
T1 sequence (P49684 1-386): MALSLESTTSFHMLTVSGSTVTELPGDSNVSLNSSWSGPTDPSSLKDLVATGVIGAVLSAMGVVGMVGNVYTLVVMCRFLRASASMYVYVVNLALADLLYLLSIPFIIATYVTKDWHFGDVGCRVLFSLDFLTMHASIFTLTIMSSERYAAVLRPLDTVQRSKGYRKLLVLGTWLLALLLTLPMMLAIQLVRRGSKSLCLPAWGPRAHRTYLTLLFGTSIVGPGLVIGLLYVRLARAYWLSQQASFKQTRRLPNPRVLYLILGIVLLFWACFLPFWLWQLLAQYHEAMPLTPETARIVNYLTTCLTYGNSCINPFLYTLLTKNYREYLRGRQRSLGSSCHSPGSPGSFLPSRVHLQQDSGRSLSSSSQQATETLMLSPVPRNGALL

Row | Compound | pIC50 [1] | potency in inducing rat aorta contraction (rat aorta contraction) | potency in binding to rat aorta tissue (U-II receptors)
1 | CC(C)[C@@H]1NC(=O)[C@H](CCCCN)NC(=O)[C@@H](Cc2c[nH]c3ccccc23)NC(=O)[C@H](Cc2cccnc2)NC(=O)[C@H](NC(=O)[C@@H](N)Cc2ccc(Cl)cc2)CSSC[C@@H](C(=O)N[C@@H](Cc2ccc(Cl)cc2)C(N)=O)NC1=O [Cpa-c[D-Cys-Pal-D-Trp-Lys-Val-Cys]-Cpa-amide] (H-[Phe(4-Cl)][dC][3Pal][dW]KVC[Phe(4-Cl)]-NH2; disulfide 2-7) | ~7.00 |  | 
2 | CC(C)[C@H](NC(=O)[C@@H]1CSSC[C@H](NC(=O)[C@@H](N)CC(=O)O)C(=O)N[C@@H](Cc2ccccc2)C(=O)N[C@@H](Cc2c[nH]c3ccccc23)C(=O)N[C@@H](CCCCN)C(=O)N[C@@H](Cc2ccc(O)cc2)C(=O)N1)C(=O)O [Asp-c[Cys-Phe-Trp-Lys-Tyr-Cys]-Val-OH] (H-DCFWKYCV-OH; disulfide 2-7) |  | greater potency than the full human and fish U-II sequences; also recorded: more potent than the full human and fish sequences | greater potency than the full human and fish U-II sequences

From EP1878743A2, “Urotensin-II agonists and antagonists” (The Administrators of The Tulane Educational Fund, priority 2000, dated 2002)
